Data published in patent US11332499B2, “Cyclic peptides and methods of use thereof” (Regents of the University of Minnesota, priority 2018, dated 2022).
Some entries share one result that the patent states for a list of compounds.

Protein sequences, listed by entry. Tags and fused reporters are not part of them.
UniProt P32245, whole entry: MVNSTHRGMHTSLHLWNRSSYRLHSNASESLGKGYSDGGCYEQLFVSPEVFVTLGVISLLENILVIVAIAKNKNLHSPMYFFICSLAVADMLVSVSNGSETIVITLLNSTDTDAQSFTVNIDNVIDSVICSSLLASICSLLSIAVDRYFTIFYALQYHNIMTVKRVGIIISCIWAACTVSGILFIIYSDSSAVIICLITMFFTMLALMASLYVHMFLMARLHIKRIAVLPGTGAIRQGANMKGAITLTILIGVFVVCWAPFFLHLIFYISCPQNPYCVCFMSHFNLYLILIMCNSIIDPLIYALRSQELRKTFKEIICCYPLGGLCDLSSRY

Biological target: MC4R (Homo sapiens, UniProt P32245)
Assay: AlphaScreen cAMP assay, inverse agonist activity at hMC4R
Assay type: cell-based
Design: expressed in transfected cells
Settings: wildtype hMC4R

Substance: c[Pro-Arg-Phe-Phe-Val-Ala-Phe-DPro] [Peptide 13 (Example 1)]
- fold decreased inverse agonist apparent potency relative to AGRP: > 41,000 fold
